The source of these data is publication PMC10854748.

The test deals with N-terminally FLAG-HA epitope-tagged human HIRIP3 (e-HIRIP3) (human) (UniProt Q9BW71). Kind of test: co-IP; the tandem FLAG/HA-purified soluble nuclear (SNC) and chromatin-associated (CAC) e-HIRIP3 complexes from HeLa probed by Western blot with anti-H2A, anti-H2A.Z, anti-H3, anti-H2B and anti-CK2 alpha. For orientation: In western blotting, separated proteins are transferred to a membrane and probed.

No constants are given. Whether binding was seen depends on the method and setting. Binding seen in cells or lysates may run through a third protein. Some binding calls cover weakened binding; strength is not graded here. Where a sequence is shown, tags or fusion partners need not be part of it.

For “CK2 kinase (casein kinase CK2 alpha (CSNK2A1 or CSNK2A2) and beta subunits) (from UniProt P68400 1-391; P19784 1-350; P67870 1-215) (complex)”, the binding result is listed as “binds”.
